Read-outs that look alike come from different tables or passages of the source. These are yes or no findings as the source states them, for the method shown. Binding seen in cells or lysates may run through a third protein. These calls come from enrichment with a bait or labelling near it, and not all partners need be listed.
Key:
Assay in all cases: affinity purification with mass spectrometry
[1] = target: Mbd3-3xFLAG (endogenously tagged mouse MBD3) (mouse) (UniProt Q9Z2D8)
[2] = target: Mbd3-3xFLAG (endogenously tagged mouse MBD3) (mouse) (UniProt Q9Z2D8); remark: listed apart in the source
[3] = target: MBD3-3xFLAG (endogenously tagged human MBD3) (human) (UniProt O95983)

Protein sequences, listed by entry. Tags and fused reporters are not part of them.
UniProt Q9Z2D8: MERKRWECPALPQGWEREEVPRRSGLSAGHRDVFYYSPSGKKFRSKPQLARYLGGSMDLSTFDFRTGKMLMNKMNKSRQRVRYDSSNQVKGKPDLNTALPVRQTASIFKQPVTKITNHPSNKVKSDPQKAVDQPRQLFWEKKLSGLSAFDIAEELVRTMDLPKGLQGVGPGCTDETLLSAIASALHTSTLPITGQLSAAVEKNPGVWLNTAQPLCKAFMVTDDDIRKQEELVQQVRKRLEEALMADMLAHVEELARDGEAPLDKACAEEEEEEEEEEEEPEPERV
UniProt O95983: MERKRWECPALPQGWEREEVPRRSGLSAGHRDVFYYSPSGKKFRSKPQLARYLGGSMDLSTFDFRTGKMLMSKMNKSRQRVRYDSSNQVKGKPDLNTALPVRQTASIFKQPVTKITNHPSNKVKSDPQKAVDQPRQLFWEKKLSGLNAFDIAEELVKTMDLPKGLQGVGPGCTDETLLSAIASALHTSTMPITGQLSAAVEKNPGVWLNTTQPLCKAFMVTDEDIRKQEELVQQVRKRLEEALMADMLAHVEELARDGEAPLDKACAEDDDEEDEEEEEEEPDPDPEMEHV
UniProt B1AWL2: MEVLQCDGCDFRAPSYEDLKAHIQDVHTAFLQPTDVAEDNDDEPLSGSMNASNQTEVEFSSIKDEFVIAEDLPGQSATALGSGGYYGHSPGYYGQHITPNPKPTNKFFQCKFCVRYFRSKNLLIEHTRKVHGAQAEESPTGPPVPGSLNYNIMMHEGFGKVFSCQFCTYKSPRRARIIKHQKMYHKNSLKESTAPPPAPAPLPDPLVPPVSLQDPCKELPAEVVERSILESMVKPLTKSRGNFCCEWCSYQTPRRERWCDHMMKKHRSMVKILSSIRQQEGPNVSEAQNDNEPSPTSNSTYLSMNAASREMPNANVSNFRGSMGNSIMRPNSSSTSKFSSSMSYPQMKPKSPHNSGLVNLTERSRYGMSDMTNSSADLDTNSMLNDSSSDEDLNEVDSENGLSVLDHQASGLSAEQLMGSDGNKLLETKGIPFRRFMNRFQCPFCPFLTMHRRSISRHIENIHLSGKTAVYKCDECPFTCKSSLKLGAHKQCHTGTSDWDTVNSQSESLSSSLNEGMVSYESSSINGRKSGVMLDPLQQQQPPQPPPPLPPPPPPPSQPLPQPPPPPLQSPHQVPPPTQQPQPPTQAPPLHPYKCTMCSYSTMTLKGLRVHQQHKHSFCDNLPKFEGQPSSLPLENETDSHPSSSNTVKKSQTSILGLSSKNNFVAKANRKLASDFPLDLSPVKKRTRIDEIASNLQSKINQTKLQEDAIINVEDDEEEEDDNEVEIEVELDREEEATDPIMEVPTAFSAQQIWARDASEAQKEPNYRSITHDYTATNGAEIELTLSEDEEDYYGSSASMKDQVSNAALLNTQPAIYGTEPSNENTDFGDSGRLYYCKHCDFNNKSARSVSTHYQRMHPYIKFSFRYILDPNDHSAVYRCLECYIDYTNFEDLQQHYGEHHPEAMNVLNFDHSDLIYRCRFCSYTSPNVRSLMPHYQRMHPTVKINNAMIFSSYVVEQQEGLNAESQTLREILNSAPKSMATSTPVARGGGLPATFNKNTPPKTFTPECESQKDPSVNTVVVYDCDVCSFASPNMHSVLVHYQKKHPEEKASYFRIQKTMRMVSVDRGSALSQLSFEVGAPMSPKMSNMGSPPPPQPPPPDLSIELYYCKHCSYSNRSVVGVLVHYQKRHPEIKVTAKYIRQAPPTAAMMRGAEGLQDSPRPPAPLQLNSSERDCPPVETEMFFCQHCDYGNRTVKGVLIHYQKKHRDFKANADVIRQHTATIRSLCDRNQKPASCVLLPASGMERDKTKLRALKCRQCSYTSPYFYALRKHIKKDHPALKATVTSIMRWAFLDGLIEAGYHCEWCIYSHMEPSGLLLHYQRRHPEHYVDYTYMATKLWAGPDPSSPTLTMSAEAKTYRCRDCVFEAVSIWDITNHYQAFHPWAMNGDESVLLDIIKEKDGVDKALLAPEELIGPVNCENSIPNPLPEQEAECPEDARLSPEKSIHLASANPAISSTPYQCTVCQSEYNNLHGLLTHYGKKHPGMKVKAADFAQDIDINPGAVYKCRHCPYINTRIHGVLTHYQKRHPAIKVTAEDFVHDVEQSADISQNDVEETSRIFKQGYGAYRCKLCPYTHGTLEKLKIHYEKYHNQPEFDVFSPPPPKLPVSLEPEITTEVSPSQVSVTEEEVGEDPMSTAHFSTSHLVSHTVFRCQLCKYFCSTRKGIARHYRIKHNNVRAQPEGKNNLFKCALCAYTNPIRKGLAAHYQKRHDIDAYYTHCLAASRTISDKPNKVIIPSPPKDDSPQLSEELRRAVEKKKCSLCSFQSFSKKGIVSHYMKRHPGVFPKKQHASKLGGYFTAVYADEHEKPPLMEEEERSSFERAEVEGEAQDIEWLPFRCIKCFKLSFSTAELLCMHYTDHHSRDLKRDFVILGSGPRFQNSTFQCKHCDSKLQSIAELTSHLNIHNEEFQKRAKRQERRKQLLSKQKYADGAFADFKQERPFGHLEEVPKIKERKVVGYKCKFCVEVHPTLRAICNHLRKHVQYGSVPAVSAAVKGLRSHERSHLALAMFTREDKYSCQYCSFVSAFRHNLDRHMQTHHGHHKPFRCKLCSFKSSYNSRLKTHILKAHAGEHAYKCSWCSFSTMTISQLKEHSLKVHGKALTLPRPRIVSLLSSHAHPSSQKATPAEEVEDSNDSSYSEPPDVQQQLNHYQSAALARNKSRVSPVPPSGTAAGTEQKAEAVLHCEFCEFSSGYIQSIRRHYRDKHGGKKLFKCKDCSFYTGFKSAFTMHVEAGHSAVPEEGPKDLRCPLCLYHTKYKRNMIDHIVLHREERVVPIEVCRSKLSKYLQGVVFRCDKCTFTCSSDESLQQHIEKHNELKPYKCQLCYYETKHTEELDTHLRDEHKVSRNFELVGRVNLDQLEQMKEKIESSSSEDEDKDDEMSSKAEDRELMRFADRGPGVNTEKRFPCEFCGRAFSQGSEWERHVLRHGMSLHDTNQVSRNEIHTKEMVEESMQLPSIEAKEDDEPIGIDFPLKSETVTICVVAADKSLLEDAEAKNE

Row | binding [3] | Molecule | further results
1 |  | ZNF462 (mouse) (from UniProt B1AWL2 1-2495) | binding [1]: binds
2 |  | ZNF423 (mouse) (protein, UniProt Q80TS5 1-1292) MSRRKQAKPRSVKVEEGEASDFSLAWDSSVAAAGGLEGEPECDRKTSRALEDRNSVTSQEERNEDDEDVEDESIYTCDHCQQDFESLADLTDHRAHRCPGDGDDDPQLSWVASSPSSKDVASPTQMIGDGCDLGLGEEEGGTGLPYPCQFCDKSFIRLSYLKRHEQIHSDKLPFKCTFCSRLFKHKRSRDRHIKLHTGDKKYHCHECEAAFSRSDHLKIHLKTHSSSKPFKCSVCKRGFSSTSSLQSHMQAHKKNKEHLAKSEKEAKKDDFMCDYCEDTFSQTEELEKHVLTLHPQLSEKADLQCIHCPEVFVDESTLLAHIHQAHANQKHKCPMCPEQFSSVEGVYCHLDSHRQPDSSNHSVSPDPVLGSVASMSSATPDSSASVERGSTPDSTLKPLRGQKKMRDDGQSWPKVVYSCPYCSKRDFTSLAVLEIHLKTIHADKPQQSHTCQICLDSMPTLYNLNEHVRKLHKSHAYPVMQFGNISAFHCNYCPEMFADINSLQEHIRVSHCGPNANPPDGNNAFFCNQCSMGFLTESSLTEHIQQAHCSVGSTKLESPVVQPTQSFMEVYSCPYCTNSPIFGSILKLTKHIKENHKNIPLAHSKKSKAEQSPVSSDVEVSSPKRQRLSGSANSISNGEYPCNQCDLKFSNFESFQTHLKLHLELLLRKQACPQCKEDFDSQESLLQHLTVHYMTTSTHYVCESCDKQFSSVDDLQKHLLDMHTFVLYHCTLCQEVFDSKVSIQVHLAVKHSNEKKMYRCTACNWDFRKEADLQVHVKHSHLGNPAKAHKCIFCGETFSTEVELQCHITTHSKKYNCRFCSKAFHAVILLEKHLREKHCVFDAAAENGTANGVPPTSTKKAEPADLQGMLLKNPEAPNSHEASEDDVDASEPMYGCDICGAAYTMEVLLQNHRLRDHNIRPGEDDGSRKKAEFIKGSHKCNVCSRTFFSENGLREHLQTHRGPAKHYMCPICGERFPSLLTLTEHKVTHSKSLDTGTCRICKMPLQSEEEFIEHCQMHPDLRNSLTGFRCVVCMQTVTSTLELKIHGTFHMQKLAGSSAASSPNGQGLQKLYKCALCLKEFRSKQDLVRLDVNGLPYGLCAGCMARSANGQVGGLAPPEPADRPCAGLRCPECNVKFESAEDLESHMQVDHRDLTPETSGPRKGAQTSPVPRKKTYQCIKCQMTFENEREIQIHVANHMIEEGINHECKLCNQMFDSPAKLLCHLIEHSFEGMGGTFKCPVCFTVFVQANKLQQHIFAVHGQEDKIYDCSQCPQKFFFQTELQNHTMSQHAQ | binding [2]: binds
3 | binds | PGBD3 (protein, UniProt Q8N328 1-593) MPRTLSLHEITDLLETDDSIEASAIVIQPPENATAPVSDEESGDEEGGTINNLPGSLLHTAAYLIQDGSDAESDSDDPSYAPKDDSPDEVPSTFTVQQPPPSRRRKMTKILCKWKKADLTVQPVAGRVTAPPNDFFTVMRTPTEILELFLDDEVIELIVKYSNLYACSKGVHLGLTSSEFKCFLGIIFLSGYVSVPRRRMFWEQRTDVHNVLVSAAMRRDRFETIFSNLHVADNANLDPVDKFSKLRPLISKLNERCMKFVPNETYFSFDEFMVPYFGRHGCKQFIRGKPIRFGYKFWCGATCLGYICWFQPYQGKNPNTKHEEYGVGASLVLQFSEALTEAHPGQYHFVFNNFFTSIALLDKLSSMGHQATGTVRKDHIDRVPLESDVALKKKERGTFDYRIDGKGNIVCRWNDNSVVTVASSGAGIHPLCLVSRYSQKLKKKIQVQQPNMIKVYNQFMGGVDRADENIDKYRASIRGKKWYSSPLLFCFELVLQNAWQLHKTYDEKPVDFLEFRRRVVCHYLETHGHPPEPGQKGRPQKRNIDSRYDGINHVIVKQGKQTRCAECHKNTTFRCEKCDVALHVKCSVEYHTE | 
4 | binds | ZNF423 (human) (protein, UniProt Q2M1K9 1-1284) MHKKRVEEGEASDFSLAWDSSVTAAGGLEGEPECDQKTSRALEDRNSVTSQEERNEDDEDMEDESIYTCDHCQQDFESLADLTDHRAHRCPGDGDDDPQLSWVASSPSSKDVASPTQMIGDGCDLGLGEEEGGTGLPYPCQFCDKSFIRLSYLKRHEQIHSDKLPFKCTYCSRLFKHKRSRDRHIKLHTGDKKYHCHECEAAFSRSDHLKIHLKTHSSSKPFKCTVCKRGFSSTSSLQSHMQAHKKNKEHLAKSEKEAKKDDFMCDYCEDTFSQTEELEKHVLTRHPQLSEKADLQCIHCPEVFVDENTLLAHIHQAHANQKHKCPMCPEQFSSVEGVYCHLDSHRQPDSSNHSVSPDPVLGSVASMSSATPDSSASVERGSTPDSTLKPLRGQKKMRDDGQGWTKVVYSCPYCSKRDFNSLAVLEIHLKTIHADKPQQSHTCQICLDSMPTLYNLNEHVRKLHKNHAYPVMQFGNISAFHCNYCPEMFADINSLQEHIRVSHCGPNANPSDGNNAFFCNQCSMGFLTESSLTEHIQQAHCSVGSAKLESPVVQPTQSFMEVYSCPYCTNSPIFGSILKLTKHIKENHKNIPLAHSKKSKAEQSPVSSDVEVSSPKRQRLSASANSISNGEYPCNQCDLKFSNFESFQTHLKLHLELLLRKQACPQCKEDFDSQESLLQHLTVHYMTTSTHYVCESCDKQFSSVDDLQKHLLDMHTFVLYHCTLCQEVFDSKVSIQVHLAVKHSNEKKMYRCTACNWDFRKEADLQVHVKHSHLGNPAKAHKCIFCGETFSTEVELQCHITTHSKKYNCKFCSKAFHAIILLEKHLREKHCVFDAATENGTANGVPPMATKKAEPADLQGMLLKNPEAPNSHEASEDDVDASEPMYGCDICGAAYTMEVLLQNHRLRDHNIRPGEDDGSRKKAEFIKGSHKCNVCSRTFFSENGLREHLQTHRGPAKHYMCPICGERFPSLLTLTEHKVTHSKSLDTGTCRICKMPLQSEEEFIEHCQMHPDLRNSLTGFRCVVCMQTVTSTLELKIHGTFHMQKLAGSSAASSPNGQGLQKLYKCALCLKEFRSKQDLVKLDVNGLPYGLCAGCMARSANGQVGGLAPPEPADRPCAGLRCPECSVKFESAEDLESHMQVDHRDLTPETSGPRKGTQTSPVPRKKTYQCIKCQMTFENEREIQIHVANHMIEEGINHECKLCNQMFDSPAKLLCHLIEHSFEGMGGTFKCPVCFTVFVQANKLQQHIFAVHGQEDKIYDCSQCPQKFFFQTELQNHTMSQHAQ | 
5 | binds | VRTN (human) (protein, UniProt Q9H8Y1 1-702) MTSRNQLVQKVLQELQEAVECEGLEGLIGASLEAKQVLSSFTLPTCREGGPGLQVLEVDSVALSLYPEDAPRNMLPLVCKGEGSLLFEAASMLLWGDAGLSLELRARTVVEMLLHRHYYLQGMIDSKVMLQAVRYSLCSEESPEMTSLPPATLEAIFDADVKASCFPSSFSNVWHLYALASVLQRNIYSIYPMRNLKIRPYFNRVIRPRRCDHVPSTLHIMWAGQPLTSHFFRHQYFAPVVGLEEVEAEGAPGVAPALPALAPLSSPAKTLELLNREPGLSYSHLCERYSVTKSTFYRWRRQSQEHRQKVAARFSAKHFLQDSFHRGGVVPLQQFLQRFPEISRSTYYAWKHELLGSGTCPALPPREVLGMEELEKLPEEQVAEEELECSALAVSSPGMVLMQRAKLYLEHCISLNTLVPYRCFKRRFPGISRSTYYNWRRKALRRNPSFKPAPALSAAGTPQLASVGEGAVIPWKSEAEEGAGNATGEDPPAPGELLPLRMPLSRWQRRLRRAARRQVLSGHLPFCRFRLRYPSLSPSAFWVWKSLARGWPRGLSKLQVPVPTLGKGGQEAEEKQEKEAGRDVTAVMAPPVGASSEDVEGGPSREGALQEGATAQGQPHSGPLLSQPVVAAAGGRDGRMLVMDMIATTKFKAQAKLFLQKRFQSKSFPSYKEFSALFPLTARSTYYMWKRALYDGLTLVDG | 
6 | binds | BEND3 (human) (protein, UniProt Q5T5X7 1-828) MNSTEFTEDVEEVLKSITVKVETEAEDAALDCSVNSRTSEKHSVDSVLTALQDSSKRKQLVSDGLLDSVPGVKRRRLIPEALLAGMRNRENSSPCQGNGEQAGRGRSLGNVWPGEEEPCNDATTPSYKKPLYGISHKIMEKKNPPSGDLLNVYELFEKANASNSPSSLRLLNEPQKRDCGSTGAGTDNDPNIYFLIQKMFYMLNTLTSNMSQLHSKVDLLSLEVSRIKKQVSPTEMVAKFQPPPEYQLTAAELKQIVDQSLSGGDLACRLLVQLFPELFSDVDFSRGCSACGFAAKRKLESLHLQLIRNYVEVYYPSVKDTAVWQAECLPQLNDFFSRFWAQREMEDSQPSGQVASFFEAEQVDPGHFLDNKDQEEALSLDRSSTIASDHVVDTQDLTEFLDEASSPGEFAVFLLHRLFPELFDHRKLGEQYSCYGDGGKQELDPQRLQIIRNYTEIYFPDMQEEEAWLQQCAQRINDELEGLGLDAGSEGDPPRDDCYDSSSLPDDISVVKVEDSFEGERPGRRSKKIWLVPIDFDKLEIPQPDFEVPGADCLLSKEQLRSIYESSLSIGNFASRLLVHLFPELFTHENLRKQYNCSGSLGKKQLDPSRIKLIRHYVQLLYPRAKNDRVWTLEFVGKLDERCRRRDTEQRRSYQQQRKVHVPGPECRDLTSYAINPERFREEFEGPPLPPERSSKDFCKIPLDELVVPSPDFPVPSPYLLSDKEVREIVQQSLSVGNFAARLLVRLFPELFTAENLRLQYNHSGACNKKQLDPTRLRLIRHYVEAVYPVEKMEEVWHYECIPSIDERCRRPNRKKCDILKKAKKVEK | 
7 |  | VRTN (mouse) (protein, UniProt Q3SYK4 1-740) MTSRDQLVQQVLRDLQEAVESEGLEGLIGAALEAKQVLSSFTLPICQKGGPGAQVLEVDSVALSLYPEDAPRNMLPLVCKGEGSLLFEATSLLLWGHTGLSLELRARTVVEMLLHRHYYLQGMIDSKVMLQAVRYSLCSEESPEMTNLSFATLEAIFDADVKATCFPTSFSNVWHLYALASILECNIYSIYPMRNIKIRPYFNRVIMPRCSTHVTSMLHIMWAGQPLTSHLFRHQYFAPVVGLEEVEADCTASLNPVPPNLGPLLPPAKTLELLNREPGLSYSHLCDRISITKSTFYRWRRQTQEHRQKVATRFSAKHFLQDSFHRGGFVPLQQFLQRFPEISRSTYYAWKHELLGSGANSALGPATPSREALAVPEVERPPGKKAAEEVGCSSLAAAMLSPPSMILMQRAKSFLEYCISLNKLVPYRCFKCRFPGISRSTYYNWRRKALRRTPSFKLSQAAFETAESLQPTDVGKETPFSLKREAGEEETGKAGSGAPLTSRGLISPKMPLSRWQRRLRRAARKQVLNGHLPFCRFRLRYPSLLPSTFWVWKSLSRRSPGMQIPSLSQRRQKPQGRQKPEGRQKPEEQQKPEGRQKPEGRQKPVEPQAMEADQNVPAMVVPPAETLPVATSPEDVPGGPSREGNIIQEAAMTQSQPHSGSLPSQTLAEAPGGSDGQVLVMDMLTTTRFKAQAKLFLQKRFQSKTFPSYKEFQALFPLTARSTYYMWKRALYEGLTLIDG | binding [2]: binds

Source: doi:10.1101/2020.02.05.935544
